The record followed here is PMC8384837.

Where a chain is given by its changes, count along the chain named. The list shows a part of the results. For some assays here: At the low end of the ranking, values are background and their order means little. For some assays here: The exact form of the protein is not confirmed.

What all share (details): yeast three-hybrid, YBZ-1, SC-Leu-His + 0.5 mM 3-AT, 4 days
Test [1] deals with T1, PUM1 PUF domain R2-VFQ R3-THE R4-TFR N899V + Y900F + C935T + R936H + Q939E + N971T + H972F + Q975R (UniProt Q14671).
T1 sequence: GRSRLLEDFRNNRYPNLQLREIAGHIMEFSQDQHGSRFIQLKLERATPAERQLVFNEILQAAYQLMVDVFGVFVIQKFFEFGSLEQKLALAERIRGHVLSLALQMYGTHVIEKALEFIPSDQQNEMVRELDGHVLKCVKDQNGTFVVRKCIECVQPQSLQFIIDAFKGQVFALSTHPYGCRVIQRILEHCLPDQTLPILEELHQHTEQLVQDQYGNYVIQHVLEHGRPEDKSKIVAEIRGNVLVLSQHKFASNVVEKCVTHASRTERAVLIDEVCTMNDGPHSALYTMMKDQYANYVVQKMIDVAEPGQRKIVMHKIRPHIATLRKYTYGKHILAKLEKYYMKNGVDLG

In test [2] the target is T2, PUM1 PUF domain R1-QFR R2-VFQ R7-NPG S863Q + R864F + Q867R + N899V + Y900F + S1079N + N1080P + E1083G (UniProt Q14671).
T2 sequence: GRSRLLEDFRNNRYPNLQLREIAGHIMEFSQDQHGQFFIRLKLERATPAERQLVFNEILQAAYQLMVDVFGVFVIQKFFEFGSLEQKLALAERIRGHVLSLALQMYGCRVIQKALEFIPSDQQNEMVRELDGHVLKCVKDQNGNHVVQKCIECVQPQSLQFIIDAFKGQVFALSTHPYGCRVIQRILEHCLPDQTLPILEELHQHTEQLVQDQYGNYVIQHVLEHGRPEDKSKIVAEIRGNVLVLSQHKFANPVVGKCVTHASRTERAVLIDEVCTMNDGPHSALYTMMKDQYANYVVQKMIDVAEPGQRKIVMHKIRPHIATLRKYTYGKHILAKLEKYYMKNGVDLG

For test [3], the target named is T3, PUM1 PUF domain R6-SWD R7-NPG N1043S + Y1044W + Q1047D + S1079N + N1080P + E1083G (Homo sapiens) (UniProt Q14671).
T3 sequence: T2 sequence with Q36S, F37R, R40Q, V72N, F73Y, N216S, Y217W, Q220D

The target in test [4] is T4, PUM1 PUF domain R5-PHQ R6-SWD C1007P + R1008H + N1043S + Y1044W + Q1047D (UniProt Q14671).
T4 sequence: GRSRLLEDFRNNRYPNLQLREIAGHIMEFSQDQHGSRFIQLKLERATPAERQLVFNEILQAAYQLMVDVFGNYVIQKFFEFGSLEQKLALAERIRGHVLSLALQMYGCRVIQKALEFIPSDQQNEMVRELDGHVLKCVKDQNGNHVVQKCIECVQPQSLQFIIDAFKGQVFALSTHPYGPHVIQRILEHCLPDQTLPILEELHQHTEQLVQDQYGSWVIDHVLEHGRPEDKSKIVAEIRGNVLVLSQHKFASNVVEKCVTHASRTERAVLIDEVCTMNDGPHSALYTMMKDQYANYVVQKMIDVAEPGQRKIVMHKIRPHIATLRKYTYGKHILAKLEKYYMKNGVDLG

For test [5], the target named is T5, PUM1 PUF domain R6-SWD R7-NPG N1043S + Y1044W + Q1047D + S1079N + N1080P + E1083G (UniProt Q14671).
T5 sequence: T4 sequence with P180C, H181R, S252N, N253P, E256G

Turning to “GGCUAGAACUAGUGGAUCCCCCGGCGCCCGGCGGCUCGAGCCCGGGUAAGGUUGCGAAGUCUGCAUGCCGCCGGGCGCCAUGCCUGCAGGUCGACUCUAGAAAACAUG”, in test [1], the binding signal (log2 enrichment (interaction score)) is -6.1. Consider “GGCUAGAACUAGUGGAUCCCCCGGCGCCCGGCGGCUCGAGCCCGGGUAAGUUUACGCGGUCUGCAUGCCGCCGGGCGCCAUGCCUGCAGGUCGACUCUAGAAAACAUG”, for which the binding signal (log2 enrichment (interaction score)) in test [1] is -5.52.

For the sequence “GGCUAGAACUAGUGGAUCCCCCGGCGCCCGGCGGCUCGAGCCCGGGUAAGAUUAUUUAGUCUGCAUGCCGCCGGGCGCCAUGCCUGCAGGUCGACUCUAGAAAACAUG”, the binding signal (log2 enrichment (interaction score)) in test [1] was -5.29. On to “GGCUAGAACUAGUGGAUCCCCCGGCGCCCGGCGGCUCGAGCCCGGGUAAGUGUCCCAAGUCUGCAUGCCGCCGGGCGCCAUGCCUGCAGGUCGACUCUAGAAAACAUG”, for which the binding signal (log2 enrichment (interaction score)) is -6.2 in test [2] and -0.61 in test [3].

As to “GGCUAGAACUAGUGGAUCCCCCGGCGCCCGGCGGCUCGAGCCCGGGUAAGAGUAAAACGUCUGCAUGCCGCCGGGCGCCAUGCCUGCAGGUCGACUCUAGAAAACAUG”, the binding signal (log2 enrichment (interaction score)) in test [2] is -4.9; in test [4] it was -7.52; in test [3] it was -1.12. Regarding “GGCUAGAACUAGUGGAUCCCCCGGCGCCCGGCGGCUCGAGCCCGGGUAAGUUAACCACGUCUGCAUGCCGCCGGGCGCCAUGCCUGCAGGUCGACUCUAGAAAACAUG”, the binding signal (log2 enrichment (interaction score)) in test [1] was -5.4.

With “GGCUAGAACUAGUGGAUCCCCCGGCGCCCGGCGGCUCGAGCCCGGGUAAGUGCACGCAGUCUGCAUGCCGCCGGGCGCCAUGCCUGCAGGUCGACUCUAGAAAACAUG”, the binding signal (log2 enrichment (interaction score)) in test [1] was -5.46. For the sequence “GGCUAGAACUAGUGGAUCCCCCGGCGCCCGGCGGCUCGAGCCCGGGUAAGUAAAAUACGUCUGCAUGCCGCCGGGCGCCAUGCCUGCAGGUCGACUCUAGAAAACAUG”, the values for the binding signal (log2 enrichment (interaction score)) in test [2] and in test [3] were -5.69 and -1.72, respectively. With “GGCUAGAACUAGUGGAUCCCCCGGCGCCCGGCGGCUCGAGCCCGGGUAAGUUGACCAGGUCUGCAUGCCGCCGGGCGCCAUGCCUGCAGGUCGACUCUAGAAAACAUG”, the binding signal (log2 enrichment (interaction score)) in test [2] is -4.65; in test [5], -2. Turning to “GGCUAGAACUAGUGGAUCCCCCGGCGCCCGGCGGCUCGAGCCCGGGUAAGUUGAUGAAGUCUGCAUGCCGCCGGGCGCCAUGCCUGCAGGUCGACUCUAGAAAACAUG”, the figures for the binding signal (log2 enrichment (interaction score)) in test [2], in test [4] and in test [5] were -6.46, -7.55 and -2.01, respectively. For the sequence “GGCUAGAACUAGUGGAUCCCCCGGCGCCCGGCGGCUCGAGCCCGGGUAAGGGUACGAUGUCUGCAUGCCGCCGGGCGCCAUGCCUGCAGGUCGACUCUAGAAAACAUG”, the binding signal (log2 enrichment (interaction score)) in test [1] was -3.79. Same read-out and setting: as for “GGCUAGAACUAGUGGAUCCCCCGGCGCCCGGCGGCUCGAGCCCGGGUAAGGGCUGGUAGUCUGCAUGCCGCCGGGCGCCAUGCCUGCAGGUCGACUCUAGAAAACAUG”, the figure is -4.79; as for “GGCUAGAACUAGUGGAUCCCCCGGCGCCCGGCGGCUCGAGCCCGGGUAAGGUUGACACGUCUGCAUGCCGCCGGGCGCCAUGCCUGCAGGUCGACUCUAGAAAACAUG”, -5.11.
